Our source for the binding values is paper PMC6591302.

Amino acid sequences for entries named in this document (tags omitted).
UniProt P38606: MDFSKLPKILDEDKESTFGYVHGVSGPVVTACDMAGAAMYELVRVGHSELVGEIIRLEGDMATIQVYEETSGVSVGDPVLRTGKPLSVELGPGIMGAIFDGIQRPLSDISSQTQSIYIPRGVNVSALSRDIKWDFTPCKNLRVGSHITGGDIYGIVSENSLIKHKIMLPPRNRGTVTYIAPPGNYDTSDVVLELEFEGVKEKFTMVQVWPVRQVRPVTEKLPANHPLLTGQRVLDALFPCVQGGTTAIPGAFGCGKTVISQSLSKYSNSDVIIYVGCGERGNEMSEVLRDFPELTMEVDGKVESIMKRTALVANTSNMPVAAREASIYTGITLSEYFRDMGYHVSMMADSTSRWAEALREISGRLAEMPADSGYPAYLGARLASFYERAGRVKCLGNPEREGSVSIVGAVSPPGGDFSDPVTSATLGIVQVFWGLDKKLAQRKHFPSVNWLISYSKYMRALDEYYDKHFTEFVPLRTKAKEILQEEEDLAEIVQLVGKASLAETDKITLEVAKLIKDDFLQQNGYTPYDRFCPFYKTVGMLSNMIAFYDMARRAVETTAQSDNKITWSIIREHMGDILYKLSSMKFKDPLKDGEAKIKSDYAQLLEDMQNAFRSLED
UniProt Q13488: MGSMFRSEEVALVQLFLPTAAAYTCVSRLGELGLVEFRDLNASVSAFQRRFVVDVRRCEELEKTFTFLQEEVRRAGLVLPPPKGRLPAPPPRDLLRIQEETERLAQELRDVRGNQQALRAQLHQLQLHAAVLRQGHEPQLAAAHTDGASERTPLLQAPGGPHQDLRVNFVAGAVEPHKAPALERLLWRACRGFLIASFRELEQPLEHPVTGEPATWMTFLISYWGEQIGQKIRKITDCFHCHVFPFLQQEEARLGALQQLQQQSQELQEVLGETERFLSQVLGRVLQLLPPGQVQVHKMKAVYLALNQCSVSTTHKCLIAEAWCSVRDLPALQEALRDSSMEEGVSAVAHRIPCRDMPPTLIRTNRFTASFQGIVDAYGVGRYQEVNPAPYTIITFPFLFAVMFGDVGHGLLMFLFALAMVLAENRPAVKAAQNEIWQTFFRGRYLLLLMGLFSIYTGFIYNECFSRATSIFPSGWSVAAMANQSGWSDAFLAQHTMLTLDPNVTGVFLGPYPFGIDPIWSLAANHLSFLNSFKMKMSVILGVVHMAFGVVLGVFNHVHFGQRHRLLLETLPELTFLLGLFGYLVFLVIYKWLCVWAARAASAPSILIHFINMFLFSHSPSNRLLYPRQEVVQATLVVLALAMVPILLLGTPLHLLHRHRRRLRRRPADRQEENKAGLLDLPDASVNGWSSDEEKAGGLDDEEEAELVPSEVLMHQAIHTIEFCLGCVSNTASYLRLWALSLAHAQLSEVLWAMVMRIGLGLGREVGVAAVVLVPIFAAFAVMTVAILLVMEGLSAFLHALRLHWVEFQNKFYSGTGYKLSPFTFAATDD

The target of this experiment is V-ATPase V1A1 protein (human (endogenous in HeLa)) (UniProt P38606). Nature of the experiment: co-IP; HeLa lysate in RIPA buffer with protease inhibitors; rabbit anti-V1A1 antibodies 2 ug per mg protein, 4 C, 4 h; protein A sepharose beads; washed three times with PBS containing 0.5% NP-40; Western blot for V1A1 and V0a3; normal rabbit IgG as negative control. (A western blot detects proteins with antibodies after separation by electrophoresis.)

No constants are given. Whether binding was seen depends on the method and setting. In cells and extracts the contact can be indirect. Some results given as binding are weak or reduced against the parent protein; the word gives no strength.

In the case of “V-ATPase V0a3 protein (from UniProt Q13488 1-830)”, the binding result is on record as “binds”.
